Laboratory results taken from the supplement of paper PMC12823440, “Inhibitors supercharge kinase turnover through native proteolytic circuits” (Nature, 2025).
Structures can show the parent of a compound that is named as a salt. The list shows a part of the results. The calls rarely recur for the same compound in another form.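 In K562 cells expressing nanoluciferase-fused kinases, luminescence was recorded at 4 h intervals between 2 and 18 h, normalized as percent of control with DMSO at 100% and a positive control at 0%. A significant (2 sigma) signal drop marks a time point as decreased. The authors' rule for a hit is not shown and takes in more than the number of time points.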

Chains of the proteins cited; added tags and fusions are not shown. Lines headed by an entry give the natural chain unless they say otherwise; changes in a name come on top.
UniProt P28482, whole entry: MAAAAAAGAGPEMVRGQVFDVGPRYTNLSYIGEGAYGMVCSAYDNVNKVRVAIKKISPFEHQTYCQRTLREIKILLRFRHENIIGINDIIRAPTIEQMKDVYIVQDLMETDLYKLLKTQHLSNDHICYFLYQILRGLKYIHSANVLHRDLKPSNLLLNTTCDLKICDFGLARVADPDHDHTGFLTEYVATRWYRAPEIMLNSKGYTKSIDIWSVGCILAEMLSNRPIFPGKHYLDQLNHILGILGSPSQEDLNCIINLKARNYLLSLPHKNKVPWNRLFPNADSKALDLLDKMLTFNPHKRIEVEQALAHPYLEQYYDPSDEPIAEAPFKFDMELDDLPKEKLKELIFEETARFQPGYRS
UniProt P31152, whole entry: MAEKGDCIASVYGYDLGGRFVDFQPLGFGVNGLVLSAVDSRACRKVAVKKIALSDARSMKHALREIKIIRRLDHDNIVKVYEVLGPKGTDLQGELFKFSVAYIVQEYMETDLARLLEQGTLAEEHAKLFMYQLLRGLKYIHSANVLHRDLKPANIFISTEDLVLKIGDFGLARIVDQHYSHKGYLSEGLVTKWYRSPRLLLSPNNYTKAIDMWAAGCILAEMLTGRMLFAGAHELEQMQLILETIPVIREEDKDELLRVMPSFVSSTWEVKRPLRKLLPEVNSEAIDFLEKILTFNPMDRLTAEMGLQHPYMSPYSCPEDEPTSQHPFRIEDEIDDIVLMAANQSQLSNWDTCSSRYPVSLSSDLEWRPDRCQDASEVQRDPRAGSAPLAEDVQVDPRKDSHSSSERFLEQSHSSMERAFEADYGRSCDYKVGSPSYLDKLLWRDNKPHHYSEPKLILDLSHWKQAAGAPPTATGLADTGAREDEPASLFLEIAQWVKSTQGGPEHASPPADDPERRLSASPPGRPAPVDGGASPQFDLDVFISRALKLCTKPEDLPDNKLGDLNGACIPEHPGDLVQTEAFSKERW
UniProt P49137, whole entry, looked up: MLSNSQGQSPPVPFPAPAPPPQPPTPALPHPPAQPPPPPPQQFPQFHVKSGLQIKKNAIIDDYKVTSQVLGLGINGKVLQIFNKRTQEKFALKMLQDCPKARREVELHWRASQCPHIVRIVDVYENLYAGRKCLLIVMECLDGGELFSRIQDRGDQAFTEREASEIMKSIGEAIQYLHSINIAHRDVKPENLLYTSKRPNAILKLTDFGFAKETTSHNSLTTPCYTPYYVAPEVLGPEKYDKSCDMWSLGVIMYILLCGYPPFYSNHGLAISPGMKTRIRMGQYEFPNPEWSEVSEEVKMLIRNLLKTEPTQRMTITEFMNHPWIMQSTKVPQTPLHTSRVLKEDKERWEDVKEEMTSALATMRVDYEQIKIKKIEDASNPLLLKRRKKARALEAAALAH
UniProt Q9BUB5: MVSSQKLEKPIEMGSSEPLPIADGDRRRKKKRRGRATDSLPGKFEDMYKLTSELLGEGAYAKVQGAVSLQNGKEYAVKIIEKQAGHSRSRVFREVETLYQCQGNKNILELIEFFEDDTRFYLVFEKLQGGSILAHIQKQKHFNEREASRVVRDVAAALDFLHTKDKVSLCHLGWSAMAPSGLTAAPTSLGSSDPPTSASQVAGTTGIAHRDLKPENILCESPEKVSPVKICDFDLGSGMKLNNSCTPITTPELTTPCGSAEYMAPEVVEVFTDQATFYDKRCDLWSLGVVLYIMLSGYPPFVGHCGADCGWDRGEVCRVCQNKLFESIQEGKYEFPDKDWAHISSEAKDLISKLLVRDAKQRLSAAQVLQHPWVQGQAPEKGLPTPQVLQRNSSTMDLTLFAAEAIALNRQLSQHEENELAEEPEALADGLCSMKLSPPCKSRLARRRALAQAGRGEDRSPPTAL
UniProt Q16620, whole entry, looked up: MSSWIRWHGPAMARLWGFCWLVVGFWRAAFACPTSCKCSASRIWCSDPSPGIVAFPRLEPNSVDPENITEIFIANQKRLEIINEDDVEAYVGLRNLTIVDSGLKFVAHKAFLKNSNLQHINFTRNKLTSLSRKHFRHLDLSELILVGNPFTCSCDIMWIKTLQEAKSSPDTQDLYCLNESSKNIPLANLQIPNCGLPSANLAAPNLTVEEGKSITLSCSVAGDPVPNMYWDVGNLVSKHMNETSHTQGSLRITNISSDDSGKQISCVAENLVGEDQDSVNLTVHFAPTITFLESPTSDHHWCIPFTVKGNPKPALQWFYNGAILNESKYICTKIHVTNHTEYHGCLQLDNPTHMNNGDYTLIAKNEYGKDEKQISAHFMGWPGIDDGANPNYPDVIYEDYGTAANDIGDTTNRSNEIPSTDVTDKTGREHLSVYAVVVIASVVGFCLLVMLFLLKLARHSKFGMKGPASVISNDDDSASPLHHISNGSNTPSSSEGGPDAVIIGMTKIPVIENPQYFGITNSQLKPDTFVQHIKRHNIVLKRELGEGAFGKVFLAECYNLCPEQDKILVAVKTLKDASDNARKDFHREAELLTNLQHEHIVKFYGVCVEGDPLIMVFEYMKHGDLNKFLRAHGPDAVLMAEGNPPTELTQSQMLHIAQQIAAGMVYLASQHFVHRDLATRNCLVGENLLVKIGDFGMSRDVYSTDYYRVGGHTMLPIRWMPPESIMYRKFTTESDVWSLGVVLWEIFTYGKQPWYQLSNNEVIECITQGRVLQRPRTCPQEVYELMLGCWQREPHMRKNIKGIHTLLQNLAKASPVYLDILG
UniProt Q16288, whole entry, looked up: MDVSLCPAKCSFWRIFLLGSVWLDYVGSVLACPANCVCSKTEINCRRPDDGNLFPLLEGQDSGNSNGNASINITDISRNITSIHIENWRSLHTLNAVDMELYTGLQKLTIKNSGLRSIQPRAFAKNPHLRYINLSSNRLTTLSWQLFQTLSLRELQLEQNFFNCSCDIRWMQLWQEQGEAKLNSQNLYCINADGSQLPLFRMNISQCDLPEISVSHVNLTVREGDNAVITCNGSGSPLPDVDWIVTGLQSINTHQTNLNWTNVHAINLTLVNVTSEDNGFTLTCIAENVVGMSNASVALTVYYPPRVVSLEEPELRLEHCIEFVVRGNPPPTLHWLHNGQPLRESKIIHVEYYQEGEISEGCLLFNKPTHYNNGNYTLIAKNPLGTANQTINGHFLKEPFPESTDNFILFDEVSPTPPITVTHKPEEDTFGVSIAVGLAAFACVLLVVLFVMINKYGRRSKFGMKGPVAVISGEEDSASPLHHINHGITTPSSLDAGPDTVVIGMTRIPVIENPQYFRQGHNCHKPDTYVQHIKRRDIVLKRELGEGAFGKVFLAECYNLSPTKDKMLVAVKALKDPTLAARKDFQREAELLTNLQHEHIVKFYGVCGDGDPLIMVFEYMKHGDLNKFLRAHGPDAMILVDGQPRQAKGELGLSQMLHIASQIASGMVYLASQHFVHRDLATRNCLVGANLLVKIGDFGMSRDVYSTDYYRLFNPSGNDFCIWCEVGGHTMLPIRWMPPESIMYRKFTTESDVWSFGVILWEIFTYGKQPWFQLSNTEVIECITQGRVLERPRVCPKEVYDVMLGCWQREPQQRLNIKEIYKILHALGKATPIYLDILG
UniProt O96013: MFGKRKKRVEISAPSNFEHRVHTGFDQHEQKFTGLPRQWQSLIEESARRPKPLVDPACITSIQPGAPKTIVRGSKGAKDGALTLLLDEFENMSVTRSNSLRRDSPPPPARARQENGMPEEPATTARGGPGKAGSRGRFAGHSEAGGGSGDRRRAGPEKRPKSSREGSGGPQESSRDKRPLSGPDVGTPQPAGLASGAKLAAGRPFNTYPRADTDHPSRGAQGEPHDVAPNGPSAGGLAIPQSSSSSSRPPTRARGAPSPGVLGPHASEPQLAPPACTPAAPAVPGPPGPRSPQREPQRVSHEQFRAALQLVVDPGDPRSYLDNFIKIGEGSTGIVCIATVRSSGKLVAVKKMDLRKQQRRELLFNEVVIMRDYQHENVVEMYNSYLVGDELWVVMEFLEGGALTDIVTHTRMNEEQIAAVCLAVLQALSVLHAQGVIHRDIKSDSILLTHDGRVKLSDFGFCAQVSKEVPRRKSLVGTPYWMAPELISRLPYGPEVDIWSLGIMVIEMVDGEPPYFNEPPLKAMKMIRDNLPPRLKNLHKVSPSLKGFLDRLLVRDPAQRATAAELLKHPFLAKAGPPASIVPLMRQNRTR
UniProt Q96KB5: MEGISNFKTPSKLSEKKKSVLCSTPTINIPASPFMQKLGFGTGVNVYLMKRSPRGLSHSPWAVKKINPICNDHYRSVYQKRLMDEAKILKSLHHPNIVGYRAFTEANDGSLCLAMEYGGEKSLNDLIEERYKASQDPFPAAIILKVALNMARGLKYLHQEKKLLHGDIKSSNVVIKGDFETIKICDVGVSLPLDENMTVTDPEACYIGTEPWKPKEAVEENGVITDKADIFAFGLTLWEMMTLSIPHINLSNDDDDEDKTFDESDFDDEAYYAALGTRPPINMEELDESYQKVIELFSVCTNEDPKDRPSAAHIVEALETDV
UniProt P09619, whole entry: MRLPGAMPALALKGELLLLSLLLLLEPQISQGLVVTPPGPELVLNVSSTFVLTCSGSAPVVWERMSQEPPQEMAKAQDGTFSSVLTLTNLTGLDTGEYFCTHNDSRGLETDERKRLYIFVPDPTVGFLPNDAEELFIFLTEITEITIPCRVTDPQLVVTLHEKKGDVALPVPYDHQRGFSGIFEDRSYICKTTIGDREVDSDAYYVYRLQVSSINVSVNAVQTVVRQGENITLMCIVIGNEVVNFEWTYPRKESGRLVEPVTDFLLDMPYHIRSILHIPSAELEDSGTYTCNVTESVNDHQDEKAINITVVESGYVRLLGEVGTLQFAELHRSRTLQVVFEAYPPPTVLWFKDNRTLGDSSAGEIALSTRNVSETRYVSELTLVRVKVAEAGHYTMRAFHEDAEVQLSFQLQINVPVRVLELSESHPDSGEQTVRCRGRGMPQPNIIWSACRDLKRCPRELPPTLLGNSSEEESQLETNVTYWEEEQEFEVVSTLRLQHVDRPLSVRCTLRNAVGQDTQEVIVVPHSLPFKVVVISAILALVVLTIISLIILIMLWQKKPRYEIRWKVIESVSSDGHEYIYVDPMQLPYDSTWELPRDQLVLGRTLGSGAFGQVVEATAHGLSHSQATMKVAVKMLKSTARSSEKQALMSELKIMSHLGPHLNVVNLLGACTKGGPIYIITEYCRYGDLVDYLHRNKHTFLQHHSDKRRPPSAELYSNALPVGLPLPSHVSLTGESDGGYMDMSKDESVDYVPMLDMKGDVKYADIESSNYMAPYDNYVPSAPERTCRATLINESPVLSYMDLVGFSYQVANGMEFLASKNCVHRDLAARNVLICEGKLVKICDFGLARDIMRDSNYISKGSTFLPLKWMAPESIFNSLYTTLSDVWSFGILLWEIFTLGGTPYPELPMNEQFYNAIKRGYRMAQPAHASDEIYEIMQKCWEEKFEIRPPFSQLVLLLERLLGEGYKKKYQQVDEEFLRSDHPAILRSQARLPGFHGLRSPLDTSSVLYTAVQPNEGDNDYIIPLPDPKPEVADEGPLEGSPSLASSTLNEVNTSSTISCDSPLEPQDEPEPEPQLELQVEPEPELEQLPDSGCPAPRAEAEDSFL
UniProt Q15118, whole entry, looked up: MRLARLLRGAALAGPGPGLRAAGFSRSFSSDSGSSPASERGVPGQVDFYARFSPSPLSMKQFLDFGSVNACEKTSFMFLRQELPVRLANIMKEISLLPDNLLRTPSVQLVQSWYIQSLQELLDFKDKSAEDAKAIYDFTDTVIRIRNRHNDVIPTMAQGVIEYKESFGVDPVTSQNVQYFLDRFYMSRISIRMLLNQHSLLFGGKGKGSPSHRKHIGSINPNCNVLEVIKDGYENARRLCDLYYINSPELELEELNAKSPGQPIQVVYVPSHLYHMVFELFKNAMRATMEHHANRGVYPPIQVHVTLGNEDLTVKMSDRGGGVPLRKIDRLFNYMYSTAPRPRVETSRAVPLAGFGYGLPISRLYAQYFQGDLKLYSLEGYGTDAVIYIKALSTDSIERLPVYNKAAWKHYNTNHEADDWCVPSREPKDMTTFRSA

What was measured:
Assay in all cases: kinase-Nluc reporter destabilization hit call (1 = scored as downregulated) (binary); higher = compound decreases kinase abundance
Details in all cases: K562; 2-18 h
MAPK1 = MAPK1 (UniProt P28482)
MAPK4 = MAPK4 (UniProt P31152)
MAPKAPK2 = MAPKAPK2 (UniProt P49137)
MKNK1 = MKNK1 (UniProt Q9BUB5)
NTRK2 = NTRK2 (UniProt Q16620)
NTRK3 = NTRK3 (UniProt Q16288)
PAK4 = PAK4 (UniProt O96013)
PBK = PBK (UniProt Q96KB5)
PDGFRB = PDGFRB (UniProt P09619)
PDK1 = PDK1 (UniProt Q15118)

Measured: kinase-Nluc reporter destabilization hit call

CN1CCN(C(=O)c2ccc(-c3ccc4c(C=O)c(O)ccc4c3)s2)CC1 (2.5 µM)
inactive: MAPK1 = 0 | MAPK4 = 0 | MAPKAPK2 = 0 | MKNK1 = 0 | NTRK2 = 0 | NTRK3 = 0 | PAK4 = 0 | PBK 0 | PDGFRB 0 | PDK1 = 0

O=c1oc2ccccc2c(O)c1Cc1c(O)c2ccccc2oc1=O [Dicoumarol] (10 µM)
inactive: MAPK4 = 0 | MAPKAPK2 = 0 | MKNK1 = 0 | NTRK2 = 0 | NTRK3 = 0 | PAK4 = 0 | PBK 0 | PDGFRB 0 | PDK1 = 0

Cc1cc(C)c(/C=C2\C(=O)Nc3ccccc32)[nH]1 [Semaxinib] (10 µM)
inactive: MAPK1 = 0 | MAPK4 = 0 | MAPKAPK2 = 0 | MKNK1 = 0 | NTRK2 = 0 | NTRK3 = 0 | PAK4 = 0 | PBK 0 | PDK1 = 0

CCCCOc1c(C(=O)c2c(F)cc(C)cc2F)c[nH]c2nncc1-2 (10 µM)
inactive: MAPK1 = 0 | MAPK4 = 0 | MAPKAPK2 = 0 | MKNK1 = 0 | NTRK2 = 0 | NTRK3 = 0 | PAK4 = 0 | PBK 0 | PDGFRB 0 | PDK1 = 0

c1cc(OCCN2CCCCC2)cc(-c2n[nH]c3ccc(-c4nnc[nH]4)cc23)c1 [CC-401 (hydrochloride)] (10 µM)
inactive: MAPK1 = 0 | MAPK4 = 0 | MAPKAPK2 = 0 | MKNK1 = 0 | NTRK3 = 0 | PAK4 = 0 | PBK 0 | PDGFRB 0 | PDK1 = 0

COc1cc(C=C(C#N)C(N)=O)cc(CSc2nc3ccccc3s2)c1O (10 µM)
inactive: MAPK1 = 0 | MAPK4 = 0 | MAPKAPK2 = 0 | MKNK1 = 0 | NTRK2 = 0 | NTRK3 = 0 | PAK4 = 0 | PBK 0 | PDGFRB 0 | PDK1 = 0

CCN1CCN(c2ccc(Nc3cc(N(C)C(=O)Nc4c(Cl)c(OC)cc(OC)c4Cl)ncn3)cc2)CC1 [Infigratinib] (10 µM)
inactive: MAPK1 = 0 | MAPK4 = 0 | MAPKAPK2 = 0 | MKNK1 = 0 | NTRK2 = 0 | NTRK3 = 0 | PAK4 = 0 | PBK 0 | PDGFRB 0 | PDK1 = 0

FC(F)(F)c1ccc(CNc2ccc(Cc3c[nH]c4ncc(Cl)cc34)cn2)cc1 (10 µM)
inactive: MAPK1 = 0 | MAPK4 = 0 | MAPKAPK2 = 0 | MKNK1 = 0 | NTRK2 = 0 | NTRK3 = 0 | PAK4 = 0 | PBK 0 | PDGFRB 0 | PDK1 = 0

COc1ccc2c(NC(=O)Nc3cccc(C(F)(F)F)n3)ccnc2c1 (10 µM)
inactive: MAPK1 = 0 | MAPK4 = 0 | MAPKAPK2 = 0 | MKNK1 = 0 | NTRK2 = 0 | NTRK3 = 0 | PAK4 = 0 | PBK 0 | PDK1 = 0

O=C(Nc1cc(C(F)(F)F)ccc1N1CCN(Cc2ccccn2)CC1)c1ccc(-c2ccncc2)o1 (10 µM)
inactive: MAPK1 = 0 | MAPK4 = 0 | MAPKAPK2 = 0 | MKNK1 = 0 | NTRK2 = 0 | NTRK3 = 0 | PAK4 = 0 | PBK 0 | PDGFRB 0 | PDK1 = 0

No new results follow: two of the compounds above.
COc1cc(C=C(C#N)C(N)=O)cc(CSc2nc3ccccc3s2)c1O (10 µM)
inactive: MAPK1 = 0 | MAPK4 = 0 | MAPKAPK2 = 0 | MKNK1 = 0 | NTRK2 = 0 | NTRK3 = 0 | PAK4 = 0 | PBK 0 | PDGFRB 0 | PDK1 = 0

CCN1CCN(c2ccc(Nc3cc(N(C)C(=O)Nc4c(Cl)c(OC)cc(OC)c4Cl)ncn3)cc2)CC1 [Infigratinib] (10 µM)
inactive: MAPK1 = 0 | MAPK4 = 0 | MAPKAPK2 = 0 | MKNK1 = 0 | NTRK2 = 0 | NTRK3 = 0 | PAK4 = 0 | PBK 0 | PDGFRB 0 | PDK1 = 0

More records follow.

Cc1[nH]c(/C=C2\C(=O)Nc3ccc(S(=O)(=O)Cc4c(Cl)cccc4Cl)cc32)c(C)c1C(=O)N1CCC[C@@H]1CN1CCCC1 (2.5 µM)
inactive: MAPK1 = 0 | MAPK4 = 0 | MAPKAPK2 = 0 | MKNK1 = 0 | NTRK2 = 0 | PAK4 = 0 | PBK 0 | PDGFRB 0 | PDK1 = 0
